Measurements published in paper PMC12690290.
Results are given in words; binding and its absence hold for the method and conditions named. Binding seen in cells or lysates may run through a third protein. These calls come from enrichment with a bait or labelling near it, and not all partners need be listed. Where a sequence is shown, tags or fusion partners need not be part of it.

Amino acid sequences for entries named in this document (tags omitted). A change or cut given only in a name is not applied to a line headed by its entry. Residues count along the entry.
UniProt P01009, residues 25-418: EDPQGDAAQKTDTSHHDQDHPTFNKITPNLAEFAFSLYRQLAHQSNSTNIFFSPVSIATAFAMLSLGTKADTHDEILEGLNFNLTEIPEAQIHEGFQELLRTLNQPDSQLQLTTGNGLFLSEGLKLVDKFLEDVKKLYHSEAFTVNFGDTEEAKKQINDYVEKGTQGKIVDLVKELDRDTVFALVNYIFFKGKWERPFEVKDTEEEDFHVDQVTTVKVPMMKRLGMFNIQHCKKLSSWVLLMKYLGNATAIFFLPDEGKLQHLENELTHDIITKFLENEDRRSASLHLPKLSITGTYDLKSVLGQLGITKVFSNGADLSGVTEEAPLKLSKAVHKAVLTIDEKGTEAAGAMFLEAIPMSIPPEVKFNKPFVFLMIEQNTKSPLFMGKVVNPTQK
UniProt P00915: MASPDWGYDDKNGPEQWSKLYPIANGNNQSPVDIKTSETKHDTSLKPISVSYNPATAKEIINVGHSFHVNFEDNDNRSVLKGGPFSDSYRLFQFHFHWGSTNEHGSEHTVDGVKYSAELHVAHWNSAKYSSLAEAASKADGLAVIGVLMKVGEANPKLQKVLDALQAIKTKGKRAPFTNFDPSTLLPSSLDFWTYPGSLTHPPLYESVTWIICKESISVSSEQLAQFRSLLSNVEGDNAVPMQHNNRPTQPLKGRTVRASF
UniProt P03951, residues 19-625: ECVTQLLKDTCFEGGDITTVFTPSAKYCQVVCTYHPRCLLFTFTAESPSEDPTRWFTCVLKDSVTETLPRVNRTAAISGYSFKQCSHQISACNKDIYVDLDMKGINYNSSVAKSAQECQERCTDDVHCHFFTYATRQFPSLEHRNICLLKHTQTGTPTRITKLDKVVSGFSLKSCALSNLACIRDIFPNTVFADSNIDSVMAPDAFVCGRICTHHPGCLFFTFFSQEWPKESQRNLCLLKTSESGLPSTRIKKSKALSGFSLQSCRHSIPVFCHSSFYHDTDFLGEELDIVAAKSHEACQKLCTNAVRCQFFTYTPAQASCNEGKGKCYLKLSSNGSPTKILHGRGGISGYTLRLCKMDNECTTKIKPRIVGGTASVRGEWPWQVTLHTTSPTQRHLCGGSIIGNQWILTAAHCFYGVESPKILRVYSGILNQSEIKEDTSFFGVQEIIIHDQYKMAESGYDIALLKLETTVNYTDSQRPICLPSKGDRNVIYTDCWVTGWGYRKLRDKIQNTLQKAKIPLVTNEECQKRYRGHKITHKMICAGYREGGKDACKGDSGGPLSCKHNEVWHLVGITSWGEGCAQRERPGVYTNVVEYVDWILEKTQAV
UniProt P00748, residues 20-615: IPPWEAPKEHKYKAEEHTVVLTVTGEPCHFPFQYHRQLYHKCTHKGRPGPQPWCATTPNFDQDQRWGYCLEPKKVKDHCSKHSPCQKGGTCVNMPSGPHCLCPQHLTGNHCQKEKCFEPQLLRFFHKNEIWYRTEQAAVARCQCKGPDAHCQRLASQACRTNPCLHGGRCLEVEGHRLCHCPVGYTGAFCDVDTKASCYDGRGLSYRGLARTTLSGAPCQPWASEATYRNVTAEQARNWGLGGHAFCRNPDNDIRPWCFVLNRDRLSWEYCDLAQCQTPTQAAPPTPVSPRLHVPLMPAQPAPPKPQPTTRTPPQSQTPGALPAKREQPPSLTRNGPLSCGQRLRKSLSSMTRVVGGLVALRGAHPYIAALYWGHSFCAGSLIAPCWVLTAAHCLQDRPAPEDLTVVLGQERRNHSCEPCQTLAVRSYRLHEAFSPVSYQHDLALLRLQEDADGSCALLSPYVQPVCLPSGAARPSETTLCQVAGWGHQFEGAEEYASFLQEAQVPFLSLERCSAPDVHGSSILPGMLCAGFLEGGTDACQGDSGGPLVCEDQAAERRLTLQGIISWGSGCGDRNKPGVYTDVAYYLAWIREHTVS
UniProt P02747, residues 29-245: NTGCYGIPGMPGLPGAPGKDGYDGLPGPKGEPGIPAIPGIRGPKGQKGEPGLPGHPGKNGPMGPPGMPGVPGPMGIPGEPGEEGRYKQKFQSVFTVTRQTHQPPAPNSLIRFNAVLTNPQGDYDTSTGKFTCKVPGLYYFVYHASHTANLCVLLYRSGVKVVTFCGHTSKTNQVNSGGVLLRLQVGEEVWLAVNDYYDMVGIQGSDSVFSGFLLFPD
UniProt P02746, residues 28-253: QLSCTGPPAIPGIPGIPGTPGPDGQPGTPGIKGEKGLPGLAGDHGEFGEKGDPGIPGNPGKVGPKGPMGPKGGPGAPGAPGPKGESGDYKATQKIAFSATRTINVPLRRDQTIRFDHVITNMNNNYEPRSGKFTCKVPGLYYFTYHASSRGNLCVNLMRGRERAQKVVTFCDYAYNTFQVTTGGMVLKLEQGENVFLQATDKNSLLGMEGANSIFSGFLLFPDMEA
UniProt O75636, residues 24-299: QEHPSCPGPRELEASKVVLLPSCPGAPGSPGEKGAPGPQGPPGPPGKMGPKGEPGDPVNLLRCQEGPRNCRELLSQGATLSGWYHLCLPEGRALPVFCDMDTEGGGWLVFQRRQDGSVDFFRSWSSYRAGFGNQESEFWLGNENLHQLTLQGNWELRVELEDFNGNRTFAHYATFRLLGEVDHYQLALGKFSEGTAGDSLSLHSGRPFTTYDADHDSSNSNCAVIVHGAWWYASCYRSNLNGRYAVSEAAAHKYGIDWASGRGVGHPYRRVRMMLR
UniProt P00738, residues 19-406: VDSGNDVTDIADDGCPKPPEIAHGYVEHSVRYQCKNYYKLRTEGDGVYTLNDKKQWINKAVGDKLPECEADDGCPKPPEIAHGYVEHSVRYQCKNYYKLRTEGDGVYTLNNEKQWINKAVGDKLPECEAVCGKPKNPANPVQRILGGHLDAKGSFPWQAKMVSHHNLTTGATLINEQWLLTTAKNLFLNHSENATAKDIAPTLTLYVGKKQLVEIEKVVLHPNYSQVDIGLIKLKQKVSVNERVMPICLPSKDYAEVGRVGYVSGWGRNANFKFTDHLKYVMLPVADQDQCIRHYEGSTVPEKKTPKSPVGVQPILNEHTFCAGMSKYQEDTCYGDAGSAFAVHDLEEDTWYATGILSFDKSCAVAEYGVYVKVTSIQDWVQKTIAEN
UniProt P40189, residues 23-918: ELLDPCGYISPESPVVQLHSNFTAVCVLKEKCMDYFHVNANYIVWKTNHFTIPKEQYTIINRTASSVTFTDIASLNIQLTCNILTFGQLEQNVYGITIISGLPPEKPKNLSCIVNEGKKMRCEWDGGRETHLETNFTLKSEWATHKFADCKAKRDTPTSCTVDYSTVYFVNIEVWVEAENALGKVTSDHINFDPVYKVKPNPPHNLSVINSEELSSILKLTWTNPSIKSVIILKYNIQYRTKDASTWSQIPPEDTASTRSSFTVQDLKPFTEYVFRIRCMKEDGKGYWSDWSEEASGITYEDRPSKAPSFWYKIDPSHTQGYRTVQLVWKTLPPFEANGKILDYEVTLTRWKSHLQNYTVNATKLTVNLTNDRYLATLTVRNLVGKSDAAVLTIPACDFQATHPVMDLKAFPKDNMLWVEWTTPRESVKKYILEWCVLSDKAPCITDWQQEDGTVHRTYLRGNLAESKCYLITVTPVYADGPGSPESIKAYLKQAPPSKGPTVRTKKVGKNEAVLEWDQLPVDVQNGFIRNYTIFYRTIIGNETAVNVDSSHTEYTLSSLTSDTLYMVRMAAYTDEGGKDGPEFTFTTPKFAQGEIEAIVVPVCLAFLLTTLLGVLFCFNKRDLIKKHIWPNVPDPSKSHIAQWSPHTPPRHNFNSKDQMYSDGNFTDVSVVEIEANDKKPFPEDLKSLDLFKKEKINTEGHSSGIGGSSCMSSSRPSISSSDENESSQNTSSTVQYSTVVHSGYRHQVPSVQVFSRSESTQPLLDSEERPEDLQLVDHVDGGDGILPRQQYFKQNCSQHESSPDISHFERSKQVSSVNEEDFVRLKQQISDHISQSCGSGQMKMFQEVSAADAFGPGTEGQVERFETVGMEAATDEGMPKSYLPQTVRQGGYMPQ
UniProt P51884, residues 19-338: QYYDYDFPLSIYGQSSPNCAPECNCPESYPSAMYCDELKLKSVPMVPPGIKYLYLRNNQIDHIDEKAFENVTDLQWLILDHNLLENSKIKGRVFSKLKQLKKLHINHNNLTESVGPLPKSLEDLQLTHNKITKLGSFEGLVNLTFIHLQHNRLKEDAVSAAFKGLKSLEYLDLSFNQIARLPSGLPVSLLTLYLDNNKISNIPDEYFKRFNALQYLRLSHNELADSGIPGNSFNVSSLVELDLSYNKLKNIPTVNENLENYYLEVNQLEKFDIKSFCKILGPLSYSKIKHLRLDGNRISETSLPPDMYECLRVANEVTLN
UniProt Q96KG7, residues 26-1140: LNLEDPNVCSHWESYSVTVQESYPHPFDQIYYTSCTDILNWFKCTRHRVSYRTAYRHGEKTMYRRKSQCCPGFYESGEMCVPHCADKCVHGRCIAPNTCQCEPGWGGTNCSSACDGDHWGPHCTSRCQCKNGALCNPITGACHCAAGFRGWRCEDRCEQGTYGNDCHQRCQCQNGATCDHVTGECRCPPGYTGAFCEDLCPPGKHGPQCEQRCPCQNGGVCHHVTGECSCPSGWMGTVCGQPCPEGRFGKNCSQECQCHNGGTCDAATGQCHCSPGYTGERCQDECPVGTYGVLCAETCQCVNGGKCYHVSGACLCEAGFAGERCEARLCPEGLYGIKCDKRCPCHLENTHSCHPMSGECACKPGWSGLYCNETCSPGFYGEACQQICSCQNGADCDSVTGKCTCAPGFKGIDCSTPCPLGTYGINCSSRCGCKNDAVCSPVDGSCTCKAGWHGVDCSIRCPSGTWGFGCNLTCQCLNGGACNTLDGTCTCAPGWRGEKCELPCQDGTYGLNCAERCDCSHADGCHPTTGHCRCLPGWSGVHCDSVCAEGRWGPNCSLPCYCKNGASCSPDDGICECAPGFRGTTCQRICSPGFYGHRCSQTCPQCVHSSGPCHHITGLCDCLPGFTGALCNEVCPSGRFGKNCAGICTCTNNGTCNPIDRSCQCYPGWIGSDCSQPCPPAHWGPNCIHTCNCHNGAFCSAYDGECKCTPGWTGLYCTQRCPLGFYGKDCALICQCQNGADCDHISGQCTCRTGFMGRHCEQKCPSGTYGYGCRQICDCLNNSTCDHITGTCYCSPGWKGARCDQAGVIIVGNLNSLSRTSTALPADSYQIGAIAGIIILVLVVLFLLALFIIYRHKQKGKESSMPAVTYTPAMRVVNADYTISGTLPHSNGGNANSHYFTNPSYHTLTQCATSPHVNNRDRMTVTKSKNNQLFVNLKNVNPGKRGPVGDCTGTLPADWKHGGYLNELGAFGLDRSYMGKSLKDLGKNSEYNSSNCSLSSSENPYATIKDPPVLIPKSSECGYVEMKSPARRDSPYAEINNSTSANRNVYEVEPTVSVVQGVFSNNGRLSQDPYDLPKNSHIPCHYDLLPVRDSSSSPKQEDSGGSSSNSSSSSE
UniProt P55058, residues 18-493: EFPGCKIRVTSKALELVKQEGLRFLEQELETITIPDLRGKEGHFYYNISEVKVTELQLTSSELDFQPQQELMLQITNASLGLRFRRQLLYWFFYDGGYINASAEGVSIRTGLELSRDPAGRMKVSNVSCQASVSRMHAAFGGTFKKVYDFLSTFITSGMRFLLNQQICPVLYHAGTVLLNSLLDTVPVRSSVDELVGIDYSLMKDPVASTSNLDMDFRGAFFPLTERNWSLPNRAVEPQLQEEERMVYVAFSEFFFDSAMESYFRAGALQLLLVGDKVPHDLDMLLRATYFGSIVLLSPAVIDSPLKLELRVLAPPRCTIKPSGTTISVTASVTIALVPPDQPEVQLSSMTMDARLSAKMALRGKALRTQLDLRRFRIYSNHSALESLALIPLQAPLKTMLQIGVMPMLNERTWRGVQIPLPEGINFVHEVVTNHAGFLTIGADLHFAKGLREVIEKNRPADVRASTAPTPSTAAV
UniProt P07988: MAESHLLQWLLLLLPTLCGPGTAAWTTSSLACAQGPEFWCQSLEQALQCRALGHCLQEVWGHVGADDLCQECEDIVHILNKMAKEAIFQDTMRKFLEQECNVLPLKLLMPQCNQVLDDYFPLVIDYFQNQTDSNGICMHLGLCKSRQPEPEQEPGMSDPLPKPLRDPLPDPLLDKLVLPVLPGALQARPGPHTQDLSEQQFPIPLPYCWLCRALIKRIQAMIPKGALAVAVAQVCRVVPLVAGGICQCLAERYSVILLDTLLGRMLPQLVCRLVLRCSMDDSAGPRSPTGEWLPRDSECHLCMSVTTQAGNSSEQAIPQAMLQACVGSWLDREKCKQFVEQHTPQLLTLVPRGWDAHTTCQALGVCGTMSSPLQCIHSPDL

T1: mesoheme–rabbit hemopexin (1:1 heme–HPX complex) (rabbit) (UniProt P20058)
T1 sequence: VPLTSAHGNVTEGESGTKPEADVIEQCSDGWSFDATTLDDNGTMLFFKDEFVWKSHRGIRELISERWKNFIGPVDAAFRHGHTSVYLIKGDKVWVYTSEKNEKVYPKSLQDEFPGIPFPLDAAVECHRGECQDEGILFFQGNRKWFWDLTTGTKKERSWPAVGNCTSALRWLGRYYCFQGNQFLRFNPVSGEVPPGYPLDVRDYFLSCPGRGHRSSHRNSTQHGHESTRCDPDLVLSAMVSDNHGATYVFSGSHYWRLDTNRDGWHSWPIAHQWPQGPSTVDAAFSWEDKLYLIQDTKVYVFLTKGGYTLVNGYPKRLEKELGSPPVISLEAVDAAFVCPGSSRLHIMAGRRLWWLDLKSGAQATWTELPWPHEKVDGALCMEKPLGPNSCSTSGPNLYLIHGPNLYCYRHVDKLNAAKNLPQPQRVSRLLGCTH


Target: T1, mesoheme–rabbit hemopexin (1:1 heme–HPX complex) (rabbit)
Experiment: affinity purification with mass spectrometry; proto-heme–human HPX, mesoheme–rabbit HPX or holo-human Tf Affi-Gel 15; detergent extracts of primary human hepatocytes; proteins found on underivatized, mouse IgG or ovalbumin resins filtered out; only the target purified

Row | binding | Molecule
1 | binds | Alpha-1 antitrypsin (from UniProt P01009 25-418)
2 | binds | Angiotensinogen (from UniProt P01019 25-476)
3 | binds | Apolipoprotein B (from UniProt P04114 28-4563)
4 | binds | Carbonic anhydrase 1 (from UniProt P00915 1-261) (enzyme)
5 | binds | Coagulation factor XI (from UniProt P03951 19-625) (enzyme)
6 | binds | Coagulation factor XII (from UniProt P00748 20-615) (enzyme)
7 | binds | Complement C1q C chain (from UniProt P02747 29-245)
8 | binds | Complement C1q subcomponent subunit B (from UniProt P02746 28-253)
9 | binds | Ficolin 3 (from UniProt O75636 24-299)
10 | binds | Haptoglobin (from UniProt P00738 19-406)
11 | binds | Interleukin 6 cytokine family signal transducer (from UniProt P40189 23-918) (receptor)
12 | binds | Lumican (from UniProt P51884 19-338)
13 | binds | Multiple Epidermal Growth Factor-like Domains Protein 10 (from UniProt Q96KG7 26-1140) (receptor)
14 | binds | Phospholipid transfer protein (from UniProt P55058 18-493)
15 | binds | Surfactant protein B (from UniProt P07988)
16 | binds | Sex hormone- binding globulin (protein, UniProt P04278 30-402) LRPVLPTQSAHDPPAVHLSNGPGQEPIAVMTFDLTKITKTSSSFEVRTWDPEGVIFYGDTNPKDDWFMLGLRDGRPEIQLHNHWAQLTVGAGPRLDDGRWHQVEVKMEGDSVLLEVDGEEVLRLRQVSGPLTSKRHPIMRIALGGLLFPASNLRLPLVPALDGCLRRDSWLDKQAEISASAPTSLRSCDVESNPGIFLPPGTQAEFNLRDIPQPHAEPWAFSLDLGLKQAAGSGHLLALGTPENPSWLSLHLQDQKVVLSSGSGPGLDLPLVLGLPLQLKLSMSRVVLSQGSKMKALALPPLGLAPLLNLWAKPQGRLFLGALPGEDSSTSFCLNGLWAQGQRLDVDQALNRSHEIWTHSCPQSPGNGTDASH
17 | binds | Ceruloplasmin (enzyme, UniProt P00450 20-1065) KEKHYYIGIIETTWDYASDHGEKKLISVDTEHSNIYLQNGPDRIGRLYKKALYLQYTDETFRTTIEKPVWLGFLGPIIKAETGDKVYVHLKNLASRPYTFHSHGITYYKEHEGAIYPDNTTDFQRADDKVYPGEQYTYMLLATEEQSPGEGDGNCVTRIYHSHIDAPKDIASGLIGPLIICKKDSLDKEKEKHIDREFVVMFSVVDENFSWYLEDNIKTYCSEPEKVDKDNEDFQESNRMYSVNGYTFGSLPGLSMCAEDRVKWYLFGMGNEVDVHAAFFHGQALTNKNYRIDTINLFPATLFDAYMVAQNPGEWMLSCQNLNHLKAGLQAFFQVQECNKSSSKDNIRGKHVRHYYIAAEEIIWNYAPSGIDIFTKENLTAPGSDSAVFFEQGTTRIGGSYKKLVYREYTDASFTNRKERGPEEEHLGILGPVIWAEVGDTIRVTFHNKGAYPLSIEPIGVRFNKNNEGTYYSPNYNPQSRSVPPSASHVAPTETFTYEWTVPKEVGPTNADPVCLAKMYYSAVEPTKDIFTGLIGPMKICKKGSLHANGRQKDVDKEFYLFPTVFDENESLLLEDNIRMFTTAPDQVDKEDEDFQESNKMHSMNGFMYGNQPGLTMCKGDSVVWYLFSAGNEADVHGIYFSGNTYLWRGERRDTANLFPQTSLTLHMWPDTEGTFNVECLTTDHYTGGMKQKYTVNQCRRQSEDSTFYLGERTYYIAAVEVEWDYSPQREWEKELHHLQEQNVSNAFLDKGEFYIGSKYKKVVYRQYTDSTFRVPVERKAEEEHLGILGPQLHADVGDKVKIIFKNMATRPYSIHAHGVQTESSTVTPTLPGETLTYVWKIPERSGAGTEDSACIPWAYYSTVDQVKDLYSGLIGPLIVCRRPYLKVFNPRRKLEFALLFLVFDENESWYLDDNIKTYSDHPEKVNKDDEEFIESNKMHAINGRMFGNLQGLTMHVGDEVNWYLMGMGNEIDLHTVHFHGHSFQYKHRGVYSSDVFDIFPGTYQTLEMFPRTPGIWLLHCHVTDHIHAGMETTYTVLQNEDTKSG
18 | binds | Haptoglobin related protein (protein, UniProt P00739 1-348) MSDLGAVISLLLWGRQLFALYSGNDVTDISDDRFPKPPEIANGYVEHLFRYQCKNYYRLRTEGDGVYTLNDKKQWINKAVGDKLPECEAVCGKPKNPANPVQRILGGHLDAKGSFPWQAKMVSHHNLTTGATLINEQWLLTTAKNLFLNHSENATAKDIAPTLTLYVGKKQLVEIEKVVLHPNYHQVDIGLIKLKQKVLVNERVMPICLPSKNYAEVGRVGYVSGWGQSDNFKLTDHLKYVMLPVADQYDCITHYEGSTCPKWKAPKSPVGVQPILNEHTFCVGMSKYQEDTCYGDAGSAFAVHDLEEDTWYAAGILSFDKSCAVAEYGVYVKVTSIQHWVQKTIAEN
19 | binds | Hexose-6-phosphate Dehydrogenase (enzyme, UniProt O95479 20-791) QELQGHVSIILLGATGDLAKKYLWQGLFQLYLDEAGRGHSFSFHGAALTAPKQGQELMAKALESLSCPKDMAPSHCAEHKDQFLQLSQYRQLKTAEDYQALNKDIEAQLQHAGLREAGRIFYFSVPPFAYEDIARNINSSCRPGPGAWLRVVLEKPFGHDHFSAQQLATELGTFFQEEEMYRVDHYLGKQAVAQILPFRDQNRKALDGLWNRHHVERVEIIMKETVDAEGRTSFYEEYGVIRDVLQNHLTEVLTLVAMELPHNVSSAEAVLRHKLQVFQALRGLQRGSAVVGQYQSYSEQVRRELQKPDSFHSLTPTFAAVLVHIDNLRWEGVPFILMSGKALDERVGYARILFKNQACCVQSEKHWAAAQSQCLPRQLVFHIGHGDLGSPAVLVSRNLFRPSLPSSWKEMEGPPGLRLFGSPLSDYYAYSPVRERDAHSVLLSHIFHGRKNFFITTENLLASWNFWTPLLESLAHKAPRLYPGGAENGRLLDFEFSSGRLFFSQQQPEQLVPGPGPAPMPSDFQVLRAKYRESPLVSAWSEELISKLANDIEATAVRAVRRFGQFHLALSGGSSPVALFQQLATAHYGFPWAHTHLWLVDERCVPLSDPESNFQGLQAHLLQHVRIPYYNIHPMPVHLQQRLCAEEDQGAQIYAREISALVANSSFDLVLLGMGADGHTASLFPQSPTGLDGEQLVVLTTSPSQPHRRMSLSLPLINRAKKVAVLVMGRMKREITTLVSRVGHEPKKWPISGVLPHSGQLVWYMDYDAFLG
20 | binds | Apolipoprotein C1 (protein, UniProt P02654 27-83) TPDVSSALDKLKEFGNTLEDKARELISRIKQSELSAKMREWFSETFQKVKEKLKIDS
21 | binds | Cadherin 5 (protein, UniProt P33151 48-784) DWIWNQMHIDEEKNTSLPHHVGKIKSSVSRKNAKYLLKGEYVGKVFRVDAETGDVFAIERLDRENISEYHLTAVIVDKDTGENLETPSSFTIKVHDVNDNWPVFTHRLFNASVPESSAVGTSVISVTAVDADDPTVGDHASVMYQILKGKEYFAIDNSGRIITITKSLDREKQARYEIVVEARDAQGLRGDSGTATVLVTLQDINDNFPFFTQTKYTFVVPEDTRVGTSVGSLFVEDPDEPQNRMTKYSILRGDYQDAFTIETNPAHNEGIIKPMKPLDYEYIQQYSFIVEATDPTIDLRYMSPPAGNRAQVIINITDVDEPPIFQQPFYHFQLKENQKKPLIGTVLAMDPDAARHSIGYSIRRTSDKGQFFRVTKKGDIYNEKELDREVYPWYNLTVEAKELDSTGTPTGKESIVQVHIEVLDENDNAPEFAKPYQPKVCENAVHGQLVLQISAIDKDITPRNVKFKFILNTENNFTLTDNHDNTANITVKYGQFDREHTKVHFLPVVISDNGMPSRTGTSTLTVAVCKCNEQGEFTFCEDMAAQVGVSIQAVVAILLCILTITVITLLIFLRRRLRKQARAHGKSVPEIHEQLVTYDEEGGGEMDTTSYDVSVLNSVRRGGAKPPRPALDARPSLYAQVQKPPRHAPGAHGGPGEMAAMIEVKKDEADHDGDGPPYDTLHIYGYEGSESIAESLSSLGTDSSDSDVDYDFLNDWGPRFKMLAELYGSDPREELLY
22 | binds | Histidine-rich glycoprotein (protein, UniProt P04196 19-525) VSPTDCSAVEPEAEKALDLINKRRRDGYLFQLLRIADAHLDRVENTTVYYLVLDVQESDCSVLSRKYWNDCEPPDSRRPSEIVIGQCKVIATRHSHESQDLRVIDFNCTTSSVSSALANTKDSPVLIDFFEDTERYRKQANKALEKYKEENDDFASFRVDRIERVARVRGGEGTGYFVDFSVRNCPRHHFPRHPNVFGFCRADLFYDVEALDLESPKNLVINCEVFDPQEHENINGVPPHLGHPFHWGGHERSSTTKPPFKPHGSRDHHHPHKPHEHGPPPPPDERDHSHGPPLPQGPPPLLPMSCSSCQHATFGTNGAQRHSHNNNSSDLHPHKHHSHEQHPHGHHPHAHHPHEHDTHRQHPHGHHPHGHHPHGHHPHGHHPHGHHPHCHDFQDYGPCDPPPHNQGHCCHGHGPPPGHLRRRGPGKGPRPFHCRQIGSVYRLPPLRKGEVLPLPEANFPSFPLPHHKHPLKPDNQPFPQSVSESCPGKFKSGFPQVSMFFTHTFPK
23 | binds | Prolyl carboxypeptidase (enzyme, UniProt P42785 46-496) KNYSVLYFQQKVDHFGFNTVKTFNQRYLVADKYWKKNGGSILFYTGNEGDIIWFCNNTGFMWDVAEELKAMLVFAEHRYYGESLPFGDNSFKDSRHLNFLTSEQALADFAELIKHLKRTIPGAENQPVIAIGGSYGGMLAAWFRMKYPHMVVGALAASAPIWQFEDLVPCGVFMKIVTTDFRKSGPHCSESIHRSWDAINRLSNTGSGLQWLTGALHLCSPLTSQDIQHLKDWISETWVNLAMVDYPYASNFLQPLPAWPIKVVCQYLKNPNVSDSLLLQNIFQALNVYYNYSGQVKCLNISETATSSLGTLGWSYQACTEVVMPFCTNGVDDMFEPHSWNLKELSDDCFQQWGVRPRPSWITTMYGGKNISSHTNIVFSNGELDPWSGGGVTKDITDTLVAVTISEGAHHLDLRTKNALDPMSVLLARSLEVRHMKNWIRDFYDSAGKQH
